Measurements from patent US3941842A, “P,P'-Disubstituted α-trichloromethylbenzylanilines” (priority 1972, dated 1976).
At least one structure is not confirmed: it was looked up by name or label, or the drawing left a doubt.

System: Musca domestica (SNAIDM and RSP strains), Phormia regina, Culex fatigans and Anopheles albimanus
Assay: Insecticidal activity over the test insects (Table II, summarised in words)
Format: in vivo
Details: for insecticidal effectiveness / toxicity (in words): overall, test insects of Table II
Experimental: The compounds of the present invention were tested for insecticidal activity by standard methods, and compared with the insecticidal activities of DDT and symmetrical analogs of DDT, such methoxychlor. Toxicological methods for the determination of the topical LD50 values to adult female SNAIDM and RSP houseflies, Musca domestica L. and to Phormia regina, and LC50 values to Culex pipiens quinquefasciatus Say, and Anopheles albimanus Weid mosquitoes were described by Metcalf el al., 44 Bull. World Health Org. 363 (1971). The methods for evaluation of metabolism by mouse liver homogenate and by female RSP housefly and salt-marsh caterpillar larvae Estigmene acrea Drury, were described by Kapoor et al., 18 J. Agr. Food Chem. 1145 (1970). The techniques for model eocsystem evluation were described by Metcalf et al., 5 J. Environ. Sci. Tech. 709 (1971).
Since piperonyl butoxide serves to block the action of MFO, the synergized LD50 values express the intrinsic toxicity of the compounds. With the detoxifying action of MFO enzymes blocked, the intrinsic toxicity of the compounds can thus be measured.

SMILES	insecticidal effectiveness / toxicity (in words)	larvicidal effectiveness (in words) (mosquito larvae)
CCOc1ccc(NC(c2ccc(OCC)cc2)C(Cl)(Cl)Cl)cc1 (stereo not drawn) [Compound III, α-trichloromethyl-p-ethoxybenzyl-p-ethoxyaniline]	only slightly less active than compound XI	
CCOc1ccc(C(Nc2ccc(C)cc2)C(Cl)(Cl)Cl)cc1 (stereo not drawn) [XI, α-trichloromethyl-p-ethoxybenzyl-p-methylaniline]	The single most effective insecticide	only slightly less effective than compounds I and VII to the mosquito larvae
